A short description of the series: Average score of NAC and NAL depletion and prediction of skin allergenicity, fluorescence method. As for the experimental part:
The average value (Average Score) of NAC and NAL depletion percents is calculated. In the resultant value, the second decimal place is rounded off.
Average value (Average Score) of NAC and NAL depletion percents=(NAC depletion percent+NAL depletion percent)/2
The depletion percent of at least one of NAC or NAL or the average score of the depletion percents of NAC and NAL is calculated, and whether or not the test substances are “allergenic substances” or “non-allergenic substances” is determined:
(1) in a case of performing evaluation based on the average value of the depletion percent of NAC and the depletion percent of NAL,
In the following Tables, S represents as being an allergenic substance and NS represents as being a non-allergenic substance.

Where [1] appears, read: Fluorescence method, average of NAC and NAL depletion.

Where two headings read alike, the source gives them in different places.

For the compound `CC(C)O` [Isopropanol], under setting [1], the Average score is reported as 2.8. Same read-out and setting: the value for `COc1cc(C=O)ccc1O` [Vanillin] was 1.0; that for `CCCCO` [1-Butanol] was 1.2; that for `Nc1ccc(S(=O)(=O)O)cc1` [Sulfanilic acid] was 0.1. For `CCCCCC` [Hexane], the Average score is on record as 0.0. For `O=C(O)c1ccc(O)cc1` [4-Hydroxybenzoic acid], the Average score under setting [1] was 1.5. The same measure, in the same setting: the result for `CCCCCCCC(=O)O` [Octanoic acid] reads 0.0; that for `OCC(O)CO` [Glycerol], 0.1. `CC(O)C(=O)O` (centres unmarked) [Lactic acid]: under setting [1], the Average score is listed as 0.7.

On to `COC(=O)c1ccccc1O` [Methyl salicylate], for which the Average score under setting [1] is listed as 0.1. With `O=C(O)c1ccccc1O` [Salicylic acid], the Average score under setting [1] was 2.2. With `CCCCBr` [1-Bromobutane], under setting [1], the Average score is 0.0. With `CCCCCCCCCCCCCC(=O)OC(C)C` [Isopropyl myristate], the Average score under setting [1] is given as 3.1. Still for that read-out and setting: the result for `Nc1ccc(S(N)(=O)=O)cc1` [Sulfanilamide] reads 2.1.

Turning to `CCCOC(=O)c1ccc(O)cc1` [Propylparaben], the Average score under setting [1] was 2.5. The same measure, in the same setting: the value for `COc1ccc(C(C)=O)cc1` [4′-Methoxyacetophenone] was 0.6; that for `CCCCCCCCC(=O)O` [Nonanoic acid] was 0.0.

On to `CCOC(=O)c1ccccc1C(=O)OCC` [Diethyl phthalate], for which, under setting [1], the Average score was 0.1.

For `COC(=O)c1ccc(O)cc1` [Methylparaben], the Average score under setting [1] is given as 2.7. Turning to `CC(O)CO` (centres unmarked) [Propylene glycol], the Average score under setting [1] is 2.8. Still for that read-out and setting: the result for `CC(=O)C1CCCCC1=O` (centres unmarked) [2-Acetylcyclohexanone] reads 1.7; that for `Cc1ccc2oc(=O)ccc2c1` [6-Methylcoumarin], 0.7; that for `ClC(Cl)c1ccccc1` [Benzylidene dichloride], 1.7. Regarding `O=c1ccc2ccccc2o1` [Coumarin], under setting [1], the Average score is recorded as 0.8. Still for that read-out and setting: the result for `C=C(C)C(=O)OCC(C)O` (centres unmarked) [2-Hydroxypropyl methacrylate] reads 1.1; that for `Clc1ccccc1` [Chlorobenzene], 0.7.
